Data as given in publication PMC10095060.
Results are given in words; binding and its absence hold for the method and conditions named. For part of these data: In cells and extracts the contact can be indirect. Some entries that bind do so weakly or less than the wild type.

Chains of the proteins cited; added tags and fusions are not shown.
UniProt Q84WI0: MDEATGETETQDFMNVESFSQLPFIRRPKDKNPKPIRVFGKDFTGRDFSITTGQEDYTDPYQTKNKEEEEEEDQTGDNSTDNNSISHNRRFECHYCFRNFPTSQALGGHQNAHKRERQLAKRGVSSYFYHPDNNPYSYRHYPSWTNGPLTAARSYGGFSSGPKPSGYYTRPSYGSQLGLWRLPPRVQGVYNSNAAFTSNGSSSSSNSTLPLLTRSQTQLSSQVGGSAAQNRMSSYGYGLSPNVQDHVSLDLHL
UniProt Q9FG05: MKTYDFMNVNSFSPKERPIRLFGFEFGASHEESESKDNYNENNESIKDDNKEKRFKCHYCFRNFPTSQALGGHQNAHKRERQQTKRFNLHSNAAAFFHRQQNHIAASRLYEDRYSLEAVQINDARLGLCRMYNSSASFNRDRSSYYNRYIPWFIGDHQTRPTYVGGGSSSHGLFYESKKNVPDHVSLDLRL
UniProt P93751: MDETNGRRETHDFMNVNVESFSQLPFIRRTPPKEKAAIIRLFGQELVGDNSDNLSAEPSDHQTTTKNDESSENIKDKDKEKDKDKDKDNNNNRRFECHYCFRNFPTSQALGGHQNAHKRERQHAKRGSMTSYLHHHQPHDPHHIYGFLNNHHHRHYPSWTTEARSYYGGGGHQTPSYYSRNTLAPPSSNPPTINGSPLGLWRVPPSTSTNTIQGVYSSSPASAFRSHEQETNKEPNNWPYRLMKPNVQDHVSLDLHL
UniProt Q9SK03: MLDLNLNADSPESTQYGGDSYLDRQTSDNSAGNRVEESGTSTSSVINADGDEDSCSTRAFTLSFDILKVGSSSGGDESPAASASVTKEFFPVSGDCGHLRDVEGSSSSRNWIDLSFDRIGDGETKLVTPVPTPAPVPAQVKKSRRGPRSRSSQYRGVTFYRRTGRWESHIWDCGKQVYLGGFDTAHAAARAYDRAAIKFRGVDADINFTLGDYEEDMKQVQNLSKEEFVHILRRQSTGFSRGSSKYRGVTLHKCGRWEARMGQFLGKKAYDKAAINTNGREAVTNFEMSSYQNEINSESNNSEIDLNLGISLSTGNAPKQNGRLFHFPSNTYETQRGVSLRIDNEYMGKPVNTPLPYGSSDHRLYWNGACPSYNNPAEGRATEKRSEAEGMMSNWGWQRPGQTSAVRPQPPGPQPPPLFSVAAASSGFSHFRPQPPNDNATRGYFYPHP
UniProt Q9LVG2: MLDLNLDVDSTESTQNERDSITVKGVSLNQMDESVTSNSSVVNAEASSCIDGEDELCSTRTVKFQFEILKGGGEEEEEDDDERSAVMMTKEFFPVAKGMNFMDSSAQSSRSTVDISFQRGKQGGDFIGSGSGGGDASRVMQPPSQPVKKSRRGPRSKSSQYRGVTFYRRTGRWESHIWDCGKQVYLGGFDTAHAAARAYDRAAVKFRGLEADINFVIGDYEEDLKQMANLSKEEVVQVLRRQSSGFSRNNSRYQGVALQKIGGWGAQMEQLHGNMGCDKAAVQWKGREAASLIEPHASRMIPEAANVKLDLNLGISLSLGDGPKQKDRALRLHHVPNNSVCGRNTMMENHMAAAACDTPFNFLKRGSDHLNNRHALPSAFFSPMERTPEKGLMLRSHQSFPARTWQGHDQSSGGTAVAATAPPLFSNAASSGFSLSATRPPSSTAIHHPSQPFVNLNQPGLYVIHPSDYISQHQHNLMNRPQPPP

Key:
[1] = target: GIS-BD (glabrous inflorescence stems in pGBKT7) (Arabidopsis thaliana) (UniProt Q84WI0); experiment: two-hybrid; pGADT7 (AD) and pGBKT7 (BD) constructs co-transformed into yeast AH109; selected on SD/-Leu/-Trp at 30 °C for 48 h in the dark, then growth on SD/-Ade/-His/-Leu/-Trp at 30 °C
[2] = target: GIS2-BD (GIS2 in pGBKT7) (Arabidopsis thaliana) (UniProt Q9FG05); experiment: as above
[3] = target: ZFP8-BD (zinc-finger protein 8 in pGBKT7) (Arabidopsis thaliana) (UniProt P93751); experiment: as above
[4] = target: GIS-nYFP (Arabidopsis thaliana) (UniProt Q84WI0); experiment: split reporter; BiFC: cYFP and nYFP constructs (P2YC, P2YN) in Agrobacterium GV3101 mixed 1:1, infiltrated into Nicotiana benthamiana leaves, 23 °C in the dark for 24-72 h; YFP fluorescence in lower epidermal cells by fluorescence microscopy
[5] = target: GIS2-nYFP (Arabidopsis thaliana) (UniProt Q9FG05); experiment: as above
[6] = target: ZFP8-nYFP (Arabidopsis thaliana) (UniProt P93751); experiment: as above

binding [1]	binding [2]	binding [3]	binding [4]	binding [5]	binding [6]	Substance
binds	binds	binds	–	–	–	TOE1-AD (TARGET OF EARLY ACTIVATION TAGGED 1 in pGADT7) (from UniProt Q9SK03 1-449)
–	–	–	binds	binds	binds	TOE1-cYFP (from UniProt Q9SK03 1-449)
binds	binds	binds	–	–	–	TOE2-AD (TOE2 in pGADT7) (from UniProt Q9LVG2 1-485)
–	–	–	binds	binds	binds	TOE2-cYFP (from UniProt Q9LVG2 1-485)
